In the supplement of paper PMC12823440, “Inhibitors supercharge kinase turnover through native proteolytic circuits” (Nature, 2025):
The other results are listed elsewhere or left out. The calls rarely recur for the same compound in another form.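 Kinases, fused to nanoluciferase, were expressed in K562 cells; luminescence was measured every 4 h from 2 to 18 h as percent of control (DMSO = 100%, positive control = 0%). A time point is decreased if signal falls significantly (2 sigma). Hits were called by the authors by a rule that is not shown; the count of time points alone does not decide it.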

The chains behind the UniProt entries cited, without tags or fusion partners. Where a name states a change or a piece, a line headed by the entry shows the natural chain unless it says otherwise.
UniProt P53667: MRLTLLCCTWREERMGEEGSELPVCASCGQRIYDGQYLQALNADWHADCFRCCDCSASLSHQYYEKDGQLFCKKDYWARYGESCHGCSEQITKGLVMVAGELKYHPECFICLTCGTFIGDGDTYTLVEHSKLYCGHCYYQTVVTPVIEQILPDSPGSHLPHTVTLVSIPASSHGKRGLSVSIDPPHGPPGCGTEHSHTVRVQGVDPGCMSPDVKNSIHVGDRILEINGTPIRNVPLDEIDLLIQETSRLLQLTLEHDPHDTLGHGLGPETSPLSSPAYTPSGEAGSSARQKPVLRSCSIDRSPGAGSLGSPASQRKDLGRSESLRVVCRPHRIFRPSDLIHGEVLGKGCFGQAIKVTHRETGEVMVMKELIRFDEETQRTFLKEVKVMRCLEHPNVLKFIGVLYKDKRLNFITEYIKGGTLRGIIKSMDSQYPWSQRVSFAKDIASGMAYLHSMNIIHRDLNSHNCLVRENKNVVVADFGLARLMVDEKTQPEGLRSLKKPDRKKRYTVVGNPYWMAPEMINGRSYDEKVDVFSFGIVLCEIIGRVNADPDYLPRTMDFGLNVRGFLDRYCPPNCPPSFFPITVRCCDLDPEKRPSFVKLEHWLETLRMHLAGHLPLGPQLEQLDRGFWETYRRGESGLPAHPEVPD
UniProt P07333, whole entry: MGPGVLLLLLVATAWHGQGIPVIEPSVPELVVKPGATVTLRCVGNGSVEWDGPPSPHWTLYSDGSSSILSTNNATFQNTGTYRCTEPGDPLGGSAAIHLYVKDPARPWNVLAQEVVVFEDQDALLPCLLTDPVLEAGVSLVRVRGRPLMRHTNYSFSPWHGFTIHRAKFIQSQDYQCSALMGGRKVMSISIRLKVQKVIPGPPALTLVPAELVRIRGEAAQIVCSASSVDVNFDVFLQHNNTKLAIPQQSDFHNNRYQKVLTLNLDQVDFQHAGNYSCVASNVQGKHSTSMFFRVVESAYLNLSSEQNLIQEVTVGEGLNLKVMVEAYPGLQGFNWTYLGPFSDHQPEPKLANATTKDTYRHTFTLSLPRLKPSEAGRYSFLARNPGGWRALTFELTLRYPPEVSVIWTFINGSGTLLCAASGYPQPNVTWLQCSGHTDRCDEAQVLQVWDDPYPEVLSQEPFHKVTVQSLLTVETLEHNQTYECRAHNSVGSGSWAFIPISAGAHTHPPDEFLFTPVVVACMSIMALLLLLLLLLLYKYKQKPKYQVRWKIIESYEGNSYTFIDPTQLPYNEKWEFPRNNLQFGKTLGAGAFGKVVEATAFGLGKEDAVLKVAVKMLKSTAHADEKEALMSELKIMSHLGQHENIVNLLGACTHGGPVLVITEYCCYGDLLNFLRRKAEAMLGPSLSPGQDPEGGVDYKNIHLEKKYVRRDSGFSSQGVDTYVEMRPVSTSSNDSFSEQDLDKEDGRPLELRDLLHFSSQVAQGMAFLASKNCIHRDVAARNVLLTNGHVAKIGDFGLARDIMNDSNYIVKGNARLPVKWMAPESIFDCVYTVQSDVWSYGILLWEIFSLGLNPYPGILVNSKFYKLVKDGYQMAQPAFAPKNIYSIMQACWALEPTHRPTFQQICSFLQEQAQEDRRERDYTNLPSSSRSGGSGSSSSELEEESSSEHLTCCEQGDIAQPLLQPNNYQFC
UniProt Q14289, whole entry, looked up: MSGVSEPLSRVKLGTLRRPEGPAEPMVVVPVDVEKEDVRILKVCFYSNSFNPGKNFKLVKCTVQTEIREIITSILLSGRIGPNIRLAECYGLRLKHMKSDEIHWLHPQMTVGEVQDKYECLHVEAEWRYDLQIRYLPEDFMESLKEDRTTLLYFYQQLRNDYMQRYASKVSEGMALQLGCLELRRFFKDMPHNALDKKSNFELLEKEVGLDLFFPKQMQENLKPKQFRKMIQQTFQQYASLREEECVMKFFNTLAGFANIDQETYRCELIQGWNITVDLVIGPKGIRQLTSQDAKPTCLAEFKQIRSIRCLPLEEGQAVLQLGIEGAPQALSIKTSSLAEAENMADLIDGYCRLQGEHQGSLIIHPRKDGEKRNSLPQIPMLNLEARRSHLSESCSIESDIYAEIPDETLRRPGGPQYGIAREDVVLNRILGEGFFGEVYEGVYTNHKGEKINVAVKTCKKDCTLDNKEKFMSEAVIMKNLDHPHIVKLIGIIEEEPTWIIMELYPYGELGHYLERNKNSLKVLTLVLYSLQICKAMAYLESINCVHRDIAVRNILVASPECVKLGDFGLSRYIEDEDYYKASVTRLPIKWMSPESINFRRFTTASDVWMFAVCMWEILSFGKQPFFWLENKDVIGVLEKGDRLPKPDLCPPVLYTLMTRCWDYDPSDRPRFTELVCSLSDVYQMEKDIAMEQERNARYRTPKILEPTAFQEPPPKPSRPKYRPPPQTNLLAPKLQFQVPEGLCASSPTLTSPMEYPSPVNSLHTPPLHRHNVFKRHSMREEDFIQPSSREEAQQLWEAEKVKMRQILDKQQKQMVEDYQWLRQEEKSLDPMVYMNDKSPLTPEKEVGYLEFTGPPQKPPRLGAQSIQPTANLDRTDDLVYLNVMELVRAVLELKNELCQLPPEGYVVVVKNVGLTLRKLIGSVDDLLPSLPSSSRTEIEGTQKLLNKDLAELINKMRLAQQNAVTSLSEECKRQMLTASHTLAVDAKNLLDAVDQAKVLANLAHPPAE
UniProt P42680: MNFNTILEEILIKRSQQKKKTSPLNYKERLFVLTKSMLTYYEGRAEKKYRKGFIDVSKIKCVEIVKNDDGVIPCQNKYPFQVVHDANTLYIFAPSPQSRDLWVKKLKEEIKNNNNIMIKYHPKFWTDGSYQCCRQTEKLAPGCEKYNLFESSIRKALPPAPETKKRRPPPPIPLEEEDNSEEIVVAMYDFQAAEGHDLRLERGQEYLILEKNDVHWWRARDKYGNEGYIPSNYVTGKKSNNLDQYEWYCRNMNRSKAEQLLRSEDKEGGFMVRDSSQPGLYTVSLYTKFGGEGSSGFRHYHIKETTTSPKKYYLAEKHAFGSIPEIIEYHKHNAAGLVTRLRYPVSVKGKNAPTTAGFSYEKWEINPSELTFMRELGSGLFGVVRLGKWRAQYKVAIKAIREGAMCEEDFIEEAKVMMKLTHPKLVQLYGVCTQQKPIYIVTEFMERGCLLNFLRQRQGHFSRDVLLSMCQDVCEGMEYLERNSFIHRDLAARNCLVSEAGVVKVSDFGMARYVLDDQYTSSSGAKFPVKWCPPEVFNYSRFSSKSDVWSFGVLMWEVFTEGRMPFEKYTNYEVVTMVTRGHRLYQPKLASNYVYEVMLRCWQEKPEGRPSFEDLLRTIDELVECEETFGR
UniProt Q00526: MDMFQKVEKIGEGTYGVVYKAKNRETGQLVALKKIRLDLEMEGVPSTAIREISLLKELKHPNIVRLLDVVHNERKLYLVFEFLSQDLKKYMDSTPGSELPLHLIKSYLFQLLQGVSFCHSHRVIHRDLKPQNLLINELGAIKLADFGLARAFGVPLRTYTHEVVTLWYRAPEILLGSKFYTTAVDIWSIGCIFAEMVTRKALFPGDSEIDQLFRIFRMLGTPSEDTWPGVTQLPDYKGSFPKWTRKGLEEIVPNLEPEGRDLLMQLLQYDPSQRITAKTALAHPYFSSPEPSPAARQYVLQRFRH
UniProt Q9Y616: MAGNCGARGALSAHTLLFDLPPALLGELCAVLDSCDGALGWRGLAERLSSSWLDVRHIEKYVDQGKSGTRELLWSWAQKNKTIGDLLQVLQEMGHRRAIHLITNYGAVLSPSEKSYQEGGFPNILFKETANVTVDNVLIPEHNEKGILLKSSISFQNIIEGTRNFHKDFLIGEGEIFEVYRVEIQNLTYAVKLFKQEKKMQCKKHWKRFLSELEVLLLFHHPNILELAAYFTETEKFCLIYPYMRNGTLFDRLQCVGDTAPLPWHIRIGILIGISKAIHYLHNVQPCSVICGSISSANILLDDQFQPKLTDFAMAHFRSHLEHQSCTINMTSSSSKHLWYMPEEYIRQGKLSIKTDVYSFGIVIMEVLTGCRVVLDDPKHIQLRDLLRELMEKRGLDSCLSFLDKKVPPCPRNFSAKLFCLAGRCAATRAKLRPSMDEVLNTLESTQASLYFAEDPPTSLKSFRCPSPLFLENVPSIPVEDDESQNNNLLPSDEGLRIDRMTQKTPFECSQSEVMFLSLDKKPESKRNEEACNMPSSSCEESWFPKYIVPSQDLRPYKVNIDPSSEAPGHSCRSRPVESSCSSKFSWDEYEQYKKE
UniProt Q15118, whole entry, looked up: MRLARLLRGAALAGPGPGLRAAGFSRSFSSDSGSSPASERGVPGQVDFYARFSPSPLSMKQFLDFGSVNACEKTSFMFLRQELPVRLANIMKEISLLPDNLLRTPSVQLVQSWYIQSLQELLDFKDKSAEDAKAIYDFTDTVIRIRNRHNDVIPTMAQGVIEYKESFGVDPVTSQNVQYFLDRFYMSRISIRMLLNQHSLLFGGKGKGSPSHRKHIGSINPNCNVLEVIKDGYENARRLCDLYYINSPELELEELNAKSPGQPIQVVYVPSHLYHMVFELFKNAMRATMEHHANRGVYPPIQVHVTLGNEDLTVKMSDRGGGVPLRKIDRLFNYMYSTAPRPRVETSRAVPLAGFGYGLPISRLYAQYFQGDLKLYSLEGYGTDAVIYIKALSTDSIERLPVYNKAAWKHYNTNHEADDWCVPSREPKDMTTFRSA
UniProt P49840: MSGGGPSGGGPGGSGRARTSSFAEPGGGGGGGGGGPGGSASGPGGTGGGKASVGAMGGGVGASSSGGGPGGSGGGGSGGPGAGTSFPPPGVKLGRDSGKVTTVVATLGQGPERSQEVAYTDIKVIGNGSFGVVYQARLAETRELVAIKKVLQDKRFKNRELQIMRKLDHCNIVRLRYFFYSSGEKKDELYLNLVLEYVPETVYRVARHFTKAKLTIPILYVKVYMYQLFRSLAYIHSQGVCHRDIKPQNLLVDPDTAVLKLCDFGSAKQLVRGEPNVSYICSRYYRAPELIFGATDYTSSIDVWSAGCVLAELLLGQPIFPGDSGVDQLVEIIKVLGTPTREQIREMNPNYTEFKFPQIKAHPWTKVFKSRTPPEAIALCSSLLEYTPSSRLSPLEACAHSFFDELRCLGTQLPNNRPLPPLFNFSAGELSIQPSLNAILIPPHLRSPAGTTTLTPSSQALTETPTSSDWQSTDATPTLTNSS
UniProt P06241, whole entry, looked up: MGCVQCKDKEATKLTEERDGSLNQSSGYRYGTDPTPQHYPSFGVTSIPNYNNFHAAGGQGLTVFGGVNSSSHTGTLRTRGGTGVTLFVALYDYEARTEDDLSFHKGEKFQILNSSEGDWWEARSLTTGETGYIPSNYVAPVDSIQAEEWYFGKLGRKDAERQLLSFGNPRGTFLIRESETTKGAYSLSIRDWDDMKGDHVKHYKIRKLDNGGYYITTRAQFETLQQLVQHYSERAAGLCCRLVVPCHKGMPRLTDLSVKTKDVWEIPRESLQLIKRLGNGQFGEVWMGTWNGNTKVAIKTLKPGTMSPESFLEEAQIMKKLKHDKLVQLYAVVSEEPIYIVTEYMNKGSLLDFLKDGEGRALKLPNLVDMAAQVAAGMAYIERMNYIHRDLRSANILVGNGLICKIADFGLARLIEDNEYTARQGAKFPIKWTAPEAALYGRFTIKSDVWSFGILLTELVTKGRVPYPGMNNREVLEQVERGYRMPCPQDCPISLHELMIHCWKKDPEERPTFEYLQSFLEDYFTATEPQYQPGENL
UniProt O75460: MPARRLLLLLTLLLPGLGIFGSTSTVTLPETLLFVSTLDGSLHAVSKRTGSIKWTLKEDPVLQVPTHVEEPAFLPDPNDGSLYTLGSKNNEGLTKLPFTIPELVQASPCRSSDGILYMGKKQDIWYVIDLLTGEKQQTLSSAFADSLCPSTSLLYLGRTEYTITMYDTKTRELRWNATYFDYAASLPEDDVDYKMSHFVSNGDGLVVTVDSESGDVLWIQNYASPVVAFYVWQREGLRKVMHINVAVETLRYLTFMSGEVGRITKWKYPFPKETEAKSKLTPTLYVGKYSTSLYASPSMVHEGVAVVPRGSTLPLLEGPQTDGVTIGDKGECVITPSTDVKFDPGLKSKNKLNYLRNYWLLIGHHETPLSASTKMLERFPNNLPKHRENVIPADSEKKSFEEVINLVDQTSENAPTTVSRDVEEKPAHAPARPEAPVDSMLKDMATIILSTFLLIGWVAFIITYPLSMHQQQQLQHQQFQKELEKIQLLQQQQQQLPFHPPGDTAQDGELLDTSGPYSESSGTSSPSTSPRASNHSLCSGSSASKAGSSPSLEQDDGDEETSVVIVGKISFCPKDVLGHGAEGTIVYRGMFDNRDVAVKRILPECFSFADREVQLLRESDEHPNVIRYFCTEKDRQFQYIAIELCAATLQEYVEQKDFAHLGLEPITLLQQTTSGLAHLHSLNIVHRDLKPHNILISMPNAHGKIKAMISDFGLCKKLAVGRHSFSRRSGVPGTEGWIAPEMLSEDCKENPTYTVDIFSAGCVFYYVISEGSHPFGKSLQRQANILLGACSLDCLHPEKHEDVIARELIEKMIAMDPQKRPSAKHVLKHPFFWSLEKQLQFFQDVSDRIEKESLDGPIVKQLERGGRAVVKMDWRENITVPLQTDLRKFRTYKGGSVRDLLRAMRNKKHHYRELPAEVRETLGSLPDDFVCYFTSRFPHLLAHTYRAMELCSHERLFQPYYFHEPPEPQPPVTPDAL

How the values were obtained:
Test in all cases: number of time points (of 5) at which kinase-Nluc abundance scored as decreased, DMSO-normalised (count); higher = more persistent destabilization
[1] = compound: C#Cc1cccc(Nc2ncnc3cc(OCCOC)c(OCCO)cc23)c1 [Desmethyl Erlotinib (hydrochloride)]; details: 10 µM; K562; 2-18 h
Desmethyl Erlotinib = compound: C#Cc1cccc(Nc2ncnc3cc(OCCOC)c(OCCO)cc23)c1 [Desmethyl Erlotinib]; details: 10 µM; K562; 2-18 h
[2] = compound: C#Cc1cccc(Nc2ncnc3cc(OCCOC)c(OCCOC)cc23)c1 [Erlotinib (Hydrochloride)]; details: 10 µM; K562; 2-18 h
Erlotinib = compound: C#Cc1cccc(Nc2ncnc3cc(OCCOC)c(OCCOC)cc23)c1 [Erlotinib]; details: 10 µM; K562; 2-18 h
Icotinib (Hydrochloride) = compound: C#Cc1cccc(Nc2ncnc3cc4c(cc23)OCCOCCOCCO4)c1 [Icotinib (Hydrochloride)]; details: 10 µM; K562; 2-18 h
Icotinib = compound: C#Cc1cccc(Nc2ncnc3cc4c(cc23)OCCOCCOCCO4)c1 [Icotinib]; details: 10 µM; K562; 2-18 h
(Z)-Guggulsterone = compound: C/C=C1\C(=O)C[C@H]2[C@@H]3CCC4=CC(=O)CC[C@]4(C)[C@H]3CC[C@]12C [(Z)-Guggulsterone]; details: 10 µM; K562; 2-18 h
Guggulsterone = compound: C/C=C1\C(=O)C[C@H]2[C@@H]3CCC4=CC(=O)CC[C@]4(C)[C@H]3CC[C@]12C [Guggulsterone]; details: 10 µM; K562; 2-18 h
[3] = compound: C=CC(=O)N1CCN(c2ncnc3c(F)c(-c4c(O)cccc4F)c(Cl)cc23)CC1; details: K562, 2-18 h
Mobocertinib (succinate) = compound: C=CC(=O)Nc1cc(Nc2ncc(C(=O)OC(C)C)c(-c3cn(C)c4ccccc34)n2)c(OC)cc1N(C)CCN(C)C [Mobocertinib (succinate)]; details: 10 µM; K562; 2-18 h
Mobocertinib = compound: C=CC(=O)Nc1cc(Nc2ncc(C(=O)OC(C)C)c(-c3cn(C)c4ccccc34)n2)c(OC)cc1N(C)CCN(C)C [Mobocertinib]; details: 10 µM; K562; 2-18 h
Osimertinib (dimesylate) = compound: C=CC(=O)Nc1cc(Nc2nccc(-c3cn(C)c4ccccc34)n2)c(OC)cc1N(C)CCN(C)C [Osimertinib (dimesylate)]; details: 2.5 µM; K562; 2-18 h
Osimertinib mesylate = compound: C=CC(=O)Nc1cc(Nc2nccc(-c3cn(C)c4ccccc34)n2)c(OC)cc1N(C)CCN(C)C [Osimertinib mesylate]; details: 2.5 µM; K562; 2-18 h
Osimertinib = compound: C=CC(=O)Nc1cc(Nc2nccc(-c3cn(C)c4ccccc34)n2)c(OC)cc1N(C)CCN(C)C [Osimertinib]; details: 2.5 µM; K562; 2-18 h
[4] = compound: C=CC(=O)Nc1cc(Nc2nccc(-c3cn(C4CC4)c4ccccc34)n2)c(OC)cc1N(C)CCN(C)C [Almonertinib (hydrochloride)]; details: 2.5 µM; K562; 2-18 h
Almonertinib = compound: C=CC(=O)Nc1cc(Nc2nccc(-c3cn(C4CC4)c4ccccc34)n2)c(OC)cc1N(C)CCN(C)C [Almonertinib]; details: 2.5 µM; K562; 2-18 h
AV-412 (free base) = compound: C=CC(=O)Nc1cc2c(Nc3ccc(F)c(Cl)c3)ncnc2cc1C#CC(C)(C)N1CCN(C)CC1 [AV-412 (free base)]; details: 2.5 µM; K562; 2-18 h
[5] = compound: C=CC(=O)Nc1cc2c(Nc3ccc(F)c(Cl)c3)ncnc2cc1C#CC(C)(C)N1CCN(C)CC1; details: 2.5 µM; K562; 2-18 h
[6] = compound: CC(=O)N[C@H](Cc1ccc(O)cc1)C(=O)N[C@H](CCCN=C(N)N)C(=O)N[C@H](Cc1ccccc1)C(N)=O; details: 10 µM; K562; 2-18 h
[7] = compound: CC(=O)Nc1cccc(-n2c(=O)n(C3CC3)c(=O)c3c(Nc4ccc(I)cc4F)n(C)c(=O)c(C)c32)c1 [Trametinib (DMSO solvate)]; details: 10 µM; K562; 2-18 h

Target | number of time points [1] | number of time points (Desmethyl Erlotinib) | number of time points [2] | number of time points (Erlotinib) | number of time points (Icotinib (Hydrochloride)) | number of time points (Icotinib) | number of time points ((Z)-Guggulsterone) | number of time points (Guggulsterone) | number of time points ([3]; 2.5 µM) | number of time points ([3]; 10 µM) | number of time points (Mobocertinib (succinate)) | number of time points (Mobocertinib) | number of time points (Osimertinib (dimesylate)) | number of time points (Osimertinib mesylate) | number of time points (Osimertinib) | number of time points [4] | number of time points (Almonertinib) | number of time points (AV-412 (free base)) | number of time points [5] | number of time points [6] | number of time points [7]
LIMK1 (UniProt P53667) | 0 | 0 | 0 | 1 | 0 | 0 | 0 | 0 | 0 | 0 | 0 | 0 | 0 | 0 | 0 | 0 | 0 | 0 | 5 | 0 | 0
CSF1R (UniProt P07333) | 0 | 0 | 0 | 0 | 0 | 0 | 0 | 0 | 0 | 0 | 0 | 0 | 0 | 0 | 0 | 0 | 0 | 0 | 0 | 0 | 0
ERBB3 (UniProt P21860) | 0 | 0 | 0 | 0 | 0 | 2 | 0 | 0 | 0 | 0 | 0 | 0 | 0 | 0 | 0 | 0 | 0 | 0 | 0 | 0 | 2
CSNK1A1 (UniProt P48729) | 0 | 0 | 0 | 0 | 0 | 0 | 0 | 0 | 0 | 0 | 0 | 0 | 0 | 0 | 0 | 0 | 0 | 0 | 0 | 0 | 4
FGFR2 (UniProt P21802) | 0 | 0 | 3 | 0 | 0 | 1 | 0 | 0 | 0 | 0 | 0 | 0 | 0 | 0 | 0 | 0 | 0 | 0 | 0 | 0 | 2
PTK2B (UniProt Q14289) | 0 | 0 | 0 | 0 | 0 | 0 | 0 | 0 | 0 | 0 | 0 | 0 | 0 | 0 | 0 | 0 | 0 | 0 | 0 | 0 | 0
TEC (UniProt P42680) | 0 | 0 | 0 | 0 | 0 | 0 | 0 | 0 | 0 | 0 | 0 | 0 | 0 | 0 | 0 | 0 | 0 | 0 | 0 | 0 | 0
CAMK2G (UniProt Q13555) | 0 | 0 | 0 | 0 | 0 | 0 | 0 | 0 | 0 | 0 | 0 | 0 | 0 | 0 | 0 | 0 | 0 | 0 | 0 | 0 | 0
TYK2 (UniProt P29597) | 5 | 0 | 0 | 5 | 0 | 0 | 0 | 0 | 0 | 0 | 0 | 0 | 0 | 0 | 0 | 0 | 0 | 0 | 0 | 0 | 0
BLK (UniProt P51451) | 0 | 0 | 0 | 0 | 0 | 0 | 0 | 0 | 0 | 0 | 0 | 0 | 1 | 4 | 0 | 0 | 1 | 4 | 4 | 0 | 0
CSNK1D (UniProt P48730) | 0 | 0 | 0 | 0 | 0 | 0 | 0 | 0 | 0 | 0 | 0 | 0 | 0 | 0 | 0 | 0 | 0 | 0 | 0 | 0 | 0
CDK3 (UniProt Q00526) | 0 | 0 | 0 | 0 | 0 | 0 | 0 | 0 | 0 | 0 | 0 | 0 | 0 | 0 | 0 | 0 | 0 | 0 | 0 | 0 | 0
CAMK2A (UniProt Q9UQM7) | 0 | 0 | 0 | 0 | 0 | 0 | 0 | 0 | 0 | 0 | 0 | 0 | 0 | 0 | 0 | 0 | 0 | 0 | 0 | 0 | 0
RPS6KA1 (UniProt Q15418) | 0 | 0 | 0 | 0 | 0 | 0 | 0 | 0 | 0 | 0 | 0 | 0 | 0 | 0 | 0 | 0 | 0 | 0 | 0 | 0 | 0
IRAK3 (UniProt Q9Y616) | 0 | 0 | 0 | 0 | 0 | 0 | 0 | 0 | 0 | 0 | 0 | 0 | 0 | 0 | 0 | 0 | 0 | 0 | 0 | 0 | 0
ZAK (UniProt Q9NYL2) | 0 | 0 | 0 | 0 | 0 | 0 | 0 | 0 | 0 | 0 | 0 | 0 | 0 | 0 | 0 | 0 | 0 | 0 | 0 | 0 | 0
CDK2 (UniProt P24941) | 0 | 0 | 0 | 0 | 0 | 0 | 0 | 0 | 0 | 0 | 0 | 0 | 0 | 0 | 0 | 0 | 0 | 0 | 0 | 0 | 0
PDK1 (UniProt Q15118) | 0 | 0 | 0 | 0 | 0 | 0 | 0 | 0 | 0 | 0 | 0 | 0 | 0 | 0 | 0 | 0 | 0 | 0 | 0 | 0 | 0
GSK3A (UniProt P49840) | 0 | 0 | 0 | 0 | 0 | 0 | 0 | 0 | 0 | 0 | 0 | 0 | 0 | 0 | 0 | 0 | 0 | 0 | 0 | 0 | 0
MAP4K2 (UniProt Q12851) | 0 | 0 | 0 | 0 | 0 | 0 | 0 | 0 | 0 | 0 | 0 | 0 | 0 | 0 | 0 | 0 | 0 | 0 | 0 | 0 | 0
PBK (UniProt Q96KB5) | 0 | 0 | 0 | 0 | 0 | 0 | 0 | 0 | 0 | 0 | 0 | 0 | 0 | 0 | 0 | 0 | 0 | 0 | 0 | 0 | 0
BMX (UniProt P51813) | 5 | 0 | 0 | 0 | 0 | 0 | 0 | 0 | 0 | 0 | 1 | 0 | 0 | 0 | 0 | 0 | 0 | 4 | 5 | 0 | 0
FYN (UniProt P06241) | 0 | 1 | 0 | 0 | 0 | 0 | 0 | 0 | 0 | 0 | 0 | 0 | 0 | 0 | 0 | 1 | 0 | 4 | 4 | 0 | 0
SRC (UniProt P12931) | 0 | 0 | 0 | 0 | 0 | 0 | 0 | 0 | 0 | 0 | 0 | 0 | 0 | 0 | 0 | 0 | 0 | 0 | 0 | 0 | 0
JAK1 (UniProt P23458) | 0 | 0 | 0 | 0 | 0 | 1 | 0 | 0 | 0 | 0 | 0 | 0 | 0 | 0 | 0 | 0 | 0 | 0 | 0 | 0 | 0
PRKAA1 (UniProt Q13131) | 5 | 0 | 0 | 0 | 0 | 0 | 0 | 0 | 0 | 0 | 0 | 0 | 0 | 0 | 0 | 0 | 0 | 0 | 0 | 0 | 0
MAPKAPK2 (UniProt P49137) | 0 | 0 | 0 | 0 | 0 | 0 | 0 | 0 | 0 | 0 | 0 | 0 | 0 | 0 | 0 | 0 | 0 | 0 | 0 | 0 | 0
BRAF (UniProt P15056) | 0 | 0 | 0 | 0 | 0 | 0 | 0 | 0 | 0 | 0 | 0 | 0 | 0 | 0 | 0 | 0 | 0 | 0 | 0 | 0 | 0
ERN1 (UniProt O75460) | 0 | 0 | 0 | 0 | 0 | 0 | 0 | 0 | 0 | 0 | 0 | 0 | 0 | 0 | 0 | 0 | 0 | 0 | 0 | 0 | 0

Limited to number of time points (Osimertinib (dimesylate)), number of time points [2] and number of time points (Icotinib), for some of the entries so far:
Target | number of time points (Osimertinib (dimesylate)) | number of time points [2] | number of time points (Icotinib)
FGFR2 (UniProt P21802) | 0 | 3 | 1
PTK2B (UniProt Q14289) | 0 | 0 | 0
